These results are taken from PubChem BioAssay AID248 (DTP/NCI, 2004).

The assay has as its system L1210 leukemia ip in BDF1 mice, survival T/C. In words: NCI In Vivo Anticancer Drug Screen. Data for tumor model L1210 Leukemia (intraperitoneal) in B6D2F1 (BDF1) mice. The note with it: T/C endpoint: mean survival time, higher T/C = longer survival.
Setting [1] is: dose: 100.0 mg/kg/injection, schedule: Q01DX001 (ip), vehicle: saline.
[2] abbreviates: dose: 200.0 mg/kg/injection, schedule: Q01DX001 (ip), vehicle: saline.
Setting [3] is: dose: 400.0 mg/kg/injection, schedule: Q01DX001 (ip), vehicle: saline.
Setting [4] is: dose: 400.0 mg/kg/injection, schedule: Q04DX002 (ip), vehicle: saline.
[5] abbreviates: dose: 200.0 mg/kg/injection, schedule: Q01DX009 (ip), vehicle: saline.
[6] abbreviates: dose: 400.0 mg/kg/injection, schedule: Q04DX003 (ip), vehicle: saline.
Where [7] appears, read: dose: 400.0 mg/kg/injection, schedule: Q01DX009 (ip), vehicle: saline with Tween-80.
The mark [8] stands for this setting: dose: 400.0 mg/kg/injection, schedule: Q01DX001 (ip), vehicle: Klucel (hydroxypropylcellulose) (HPC).
Setting [9] is: dose: 100.0 mg/kg/injection, schedule: Q01DX009 (ip), vehicle: saline.
The mark [10] stands for this setting: dose: 200.0 mg/kg/injection, schedule: Q04DX003 (ip), vehicle: Klucel (hydroxypropylcellulose) (HPC).
Where [11] appears, read: dose: 400.0 mg/kg/injection, schedule: Q04DX003 (ip), vehicle: Klucel (hydroxypropylcellulose) (HPC).
Setting [12] is: dose: 15.0 mg/kg/injection, schedule: Q01DX Z (ip), vehicle: carboxymethylcellulose (CMC).

The list is a part of this screen's results and no random one: it gathers tests that were run many times, whatever their T/C, doses with no T/C, and many T/C values between a quarter and a half above the control. Further doses and runs are listed elsewhere. T/C: endpoint of the treated group in % of that of the vehicle group. Some entries give survivors of the animals treated and no T/C: the source holds a T/C of zero for them, seemingly a mark for toxic or unscored doses. Some survivor counts are full or nearly so, which does not show that the dose was tolerated: survival well below the control is almost never listed, so the zero probably covers shortened survival too. Survivors were counted at the toxicity check, usually on the fifth day, unless a day is given; later deaths do not show. Schedules are NCI's codes, read here as Q, the interval in days (D) or hours (H), X, the number of doses. Some molecules as drawn cover several salts, stereoisomers or complexes of the source; a dose is that of the sample tested. Some doses were run more than once; the values are given in rising order. Some schedules carry Z or #; the key to these is not given. For survival time, the PubChem record calls one and a half times the control and up active, and a quarter to a half above the control has no call in these data; cut-offs in other NCI protocols can differ. Some T/C values are followed by the survivors on the day toxicity was checked, most often the fifth; without a count, all were alive then.

Take `NC1CCC(CC2CCCCCC2)CC1` (stereo not drawn): the survivor count runs as follows: (dose: 50.0 mg/kg/injection, schedule: Q01DX009 (ip), vehicle: Klucel (hydroxypropylcellulose) (HPC)) 0 of 6; (dose: 100.0 mg/kg/injection, schedule: Q01DX009 (ip), vehicle: Klucel (hydroxypropylcellulose) (HPC)) 0 of 6; (dose: 200.0 mg/kg/injection, schedule: Q01DX009 (ip), vehicle: Klucel (hydroxypropylcellulose) (HPC)) 0 of 6; (dose: 400.0 mg/kg/injection, schedule: Q01DX009 (ip), vehicle: Klucel (hydroxypropylcellulose) (HPC)) 0 of 6.
On to `N#CC(Cc1ccccc1)C(=O)O` (stereo not drawn), for which the survivor count (dose: 400.0 mg/kg/injection, schedule: Q01DX Z (ip), vehicle: saline) is recorded as 3 of 6.
Regarding `Nc1ccncc1`, the survivor count (dose: 50.0 mg/kg/injection, schedule: Q01DX001 (ip), vehicle: saline) is listed as 3 of 6; the survivor count under setting [1] is 0 of 6; the survivor count under setting [2] is given as 0 of 6.
For `CNc1ncnc2nc(Cl)[nH]c12`, the survivor count is 0 of 6 under setting [2] and 1 of 6 under setting [3].
As for `ClC(c1ccccc1)c1nc2ccccc2[nH]1` (stereo not drawn), under setting [3], the survivor count is 2 of 4.
As for `c1ccc(-c2nn(-c3ccccc3)[n+](-c3ccccc3-c3ccccc3)n2)cc1`, under “dose: 32.0 mg/kg/injection, schedule: Q01DX015 (ip), vehicle: carboxymethylcellulose (CMC)”, the survivor count is 3 of 6.
For the compound `Cn1c2c(c3ccccc31)=NN1CCN=C1N=2`, the survivor count is reported as 0 of 3 (dose: 25.0 mg/kg/injection, schedule: Q04DX002 (ip), vehicle: saline); 0 of 3 (dose: 100.0 mg/kg/injection, schedule: Q04DX002 (ip), vehicle: saline); 0 of 3 (dose: 200.0 mg/kg/injection, schedule: Q04DX002 (ip), vehicle: saline); 0 of 3 under setting [4].
For the compound `O=C(NC/C(Br)=C/Br)Nc1c2ccccc2nc2ccccc12`, the survivor count runs as follows: (dose: 150.0 mg/kg/injection, schedule: Q01DX009 (ip), vehicle: Klucel (hydroxypropylcellulose) (HPC)) 6 of 6; (dose: 300.0 mg/kg/injection, schedule: Q01DX009 (ip), vehicle: Klucel (hydroxypropylcellulose) (HPC)) 6 of 6.
Take `CC(C)CC(C=O)(CCN1CCCCC1)c1cccc2ccccc12` (stereo not drawn): the survivor count was 0 of 3 (dose: 400.0 mg/kg/injection, schedule: Q04DX002 (ip), vehicle: saline with Tween-80) and 0 of 3 under setting [4].
For `Cn1nccc2c(=O)n(C)c(=O)nc1-2`, the survivor count (dose: 400.0 mg/kg/injection, schedule: Q04DX002 (ip), vehicle: Klucel (hydroxypropylcellulose) (HPC)) is 0 of 3.
For `COC1OC(CO)C2OC12` (stereo not drawn), the survivor count was 2 of 4 under setting [1] and 2 of 4 under setting [3].
As to `NN1CCCC1`, the survivor count by setting is: under setting [5], 3 of 6; under setting [6], 6 of 6.
Regarding `N#CCCC1CCCCC1=O` (stereo not drawn), the survivor count under setting [7] is recorded as 3 of 6.
Regarding `CNc1nc2nc[nH]c2c(=S)n1C`, the survivor count under setting [3] was 0 of 6.
With `CC(CC(=O)O)Nc1ccc(Cl)c(Cl)c1` (stereo not drawn), the survivor count runs as follows: (dose: 200.0 mg/kg/injection, schedule: Q01DX009 (ip), vehicle: saline with Tween-80) 6 of 6; under setting [7], 0 of 6; (dose: 400.0 mg/kg/injection, schedule: Q04DX003 (ip), vehicle: saline with Tween-80) 2 of 6.
On to `CCCCCCCCCCCCCCCCCC[N+]1(Cc2ccccc2)CCOCC1`, for which the survivor count reads like this: (dose: 200.0 mg/kg/injection, schedule: Q01DX001 (ip), vehicle: Klucel (hydroxypropylcellulose) (HPC)) 4 of 6; under setting [8], 0 of 6.
Turning to `C[n+]1cccc2ccccc21`, the survivor count by setting is: (dose: 100.0 mg/kg/injection, schedule: Q04DX003 (ip), vehicle: saline) 6 of 6; (dose: 200.0 mg/kg/injection, schedule: Q04DX003 (ip), vehicle: saline) 0 of 6 and 1 of 6; under setting [6], 0 of 6 and 1 of 6.
As to `CCN(CC)CCCC(C)Nc1ccnc2ccc(-c3ccccc3)cc12` (stereo not drawn), the survivor count is reported as 1 of 4 under setting [1], 0 of 4 under setting [2] and 0 of 4 under setting [3].
On to `CN(C)/N=C/c1ccc[n+](C)c1`, for which the survivor count runs as follows: (dose: 50.0 mg/kg/injection, schedule: Q01DX009 (ip), vehicle: saline) 1 of 6; under setting [9], 0 of 6; under setting [5], 0 of 6; (dose: 400.0 mg/kg/injection, schedule: Q01DX009 (ip), vehicle: saline) 0 of 6.
`CCN(CC)CCOc1cccc(O)c1`: the survivor count runs as follows: under setting [10], 3 of 6; under setting [8], 1 of 6; under setting [11], 0 of 6.
`CC(=O)Nn1cnc2c(SCc3ccccc3)ncnc21`: where the note is “dose: 400.0 mg/kg/injection, schedule: Q01DX001 (ip), vehicle: other”, the T/C was 132 [5 of 6 alive] and 134 % of control. Further, under “dose: 600.0 mg/kg/injection, schedule: Q01DX001 (ip), vehicle: other”, the survivor count is given as 0 of 6.
With `O=C(Nc1ccsc1)c1ccccc1`, the T/C (dose: 400.0 mg/kg/injection, schedule: Q01DX001 (ip), vehicle: carboxymethylcellulose (CMC)) was 125 % of control.
With `Cc1cc(CC#N)c(C)c([N+](=O)[O-])c1`, the survivor count by setting is: (dose: 100.0 mg/kg/injection, schedule: Q04DX003 (ip), vehicle: Klucel (hydroxypropylcellulose) (HPC)) 0 of 3 and 1 of 3; under setting [10], 0 of 3; under setting [11], 0 of 3.
For `CN(N)C(=O)Nc1ccccc1`, under “dose: 300.0 mg/kg/injection, schedule: Q01DX001 (ip), vehicle: carboxymethylcellulose (CMC)”, the survivor count was 0 of 6.
In the case of `CC(=O)Nc1ccc(NC(=O)Nc2cc(C)ccc2C)cc1`, the survivor count is reported as 6 of 6 (dose: 100.0 mg/kg/injection, schedule: Q04DX003 (ip), vehicle: saline with Tween-80) and 6 of 6 (dose: 200.0 mg/kg/injection, schedule: Q04DX003 (ip), vehicle: saline with Tween-80).
Take `CC1(C)N=C(N)N=C(N)N1c1ccc(CNC(=O)Nc2ccc(S(=O)(=O)F)cc2)c(Cl)c1`: the T/C was 130 % of control under setting [9] and 135 % of control (dose: 150.0 mg/kg/injection, schedule: Q01DX009 (ip), vehicle: saline).
For the compound `CN(C)C(=S)[S][Sn]([c]1ccccc1)([c]1ccccc1)[c]1ccccc1`, the survivor count is, setting by setting: (dose: 20.0 mg/kg/injection, schedule: Q01DX001 (ip), vehicle: steroid suspending solution) 6 of 6; (dose: 20.0 mg/kg/injection, schedule: Q04DX003 (ip), vehicle: saline with Tween-80) 4 of 6; (dose: 40.0 mg/kg/injection, schedule: Q04DX003 (ip), vehicle: Klucel (hydroxypropylcellulose) (HPC)) 2 of 6; (dose: 40.0 mg/kg/injection, schedule: Q04DX003 (ip), vehicle: saline with Tween-80) 3 of 6; (dose: 80.0 mg/kg/injection, schedule: Q01DX001 (ip), vehicle: steroid suspending solution) 4 of 6; (dose: 80.0 mg/kg/injection, schedule: Q04DX003 (ip), vehicle: saline with Tween-80) 0 of 6. The survivor count reads like this: (dose: 100.0 mg/kg/injection, schedule: Q01DX001 (ip), vehicle: steroid suspending solution) 3 of 6; (dose: 200.0 mg/kg/injection, schedule: Q01DX001 (ip), vehicle: steroid suspending solution) 0 of 6; (dose: 400.0 mg/kg/injection, schedule: Q01DX001 (ip), vehicle: steroid suspending solution) 0 of 6.
Consider `O=C(Nc1ccc(C2=NCCN2)c(Cl)c1)c1ccc(C(=O)Nc2ccc(C3=NCCN3)c(Cl)c2)cc1`, for which, under setting [12], the T/C is 135 % of control and the survivor count is recorded as 1 of 6. For the same compound, the T/C (dose: 60.0 mg/kg/injection, schedule: Q01DX Z (ip), vehicle: carboxymethylcellulose (CMC)) was 138 % of control [5 of 6 alive].
